The values that follow come from patent US5229116A, “Administration of pharmaceutical agents” (priority 1989, dated 1993).

For orientation: Cmax means the peak of the concentration-time curve. In general, Tmax refers to the time from dosing to the highest level. As a reminder, the AUC(0-inf) is total exposure, with the tail of the curve extrapolated. A low value points to less exposure.

The series in a line: In vivo pharmacokinetic studies of dihydropyridines given orally with water, grapefruit juice or orange juice (plasma concentration, GC analysis). The arrangement: species or system hypertensive patients). To be noted: human, po, 10 mg, nifedipine 10 mg capsules, healthy subjects, mean; for AUC(0-inf): zero to infinity. The procedure:
Hypertensive patients and healthy volunteers were given commercially available formulations of dihydropyridines in the morning after an overnight fast. The tablets were taken either with water, orange juice, or, as a source of flavonoids, 200 ml grapefruit juice. This contains about 150 mg of flavonoids, either as aglycones or glycosides.
The protocols for the five studies are shown on Table 2.
Blood samples for the analysis of the dihydropyridine and the first metabolite were drawn before and at frequent intervals after dose via an indwelling antecubital cannula. Samples were centrifuged and the plasma frozen (-20° C.) until analysis.
The maximum plasma concentration, Cmax, and the corresponding time to reach peak concentration, tmax, were recorded from the individual plasma concentration time curves of the dihydropyridine and its first metabolite. The area from zero to infinity was calculated adding the residual area to the area from zero to last determinable plasma concentration value by using the slope of the log plasma concentration time curve in the 3 to 8 hour interval after dose.

In the case of `COC(=O)C1=C(C)NC(C)=C(C(=O)OC)C1c1ccccc1[N+](=O)[O-]` [Nifedipine], where the note is “n = 6, grapefruit juice”, the Cmax came out at 250 ± 42 nM, the Tmax worked out at 1.2 ± 0.1 h and the AUC(0-inf) is 0.627 ± 0.152 µM·h. Besides, under “n = 6, water”, the highest concentration (Cmax) stood at 222 ± 54 nM, the time of peak concentration (Tmax) is 0.8 ± 0.1 h and the total exposure AUC(0-inf) stood at 0.464 ± 0.092 µM·h.
